Measurements taken from paper PMC3559503.
Results are given in words; binding and its absence hold for the method and conditions named. Some results given as binding are weak or reduced against the parent protein; the word gives no strength.

Molecular target: BteA (full length, residues 1-658) (B. bronchiseptica) (UniProt L0PR31)
Experiment: SDS-PAGE of the purified protein (SDS-resistant oligomers); fractions of the Ni2+-affinity purification resolved by SDS-PAGE; high-molecular weight bands beside the monomer band; both purified

BteA (full length, residues 1-658) (from UniProt L0PR31 1-657)
binding: binds
